Results are given in words; binding and its absence hold for the method and conditions named. In cells and extracts the contact can be indirect. Some results given as binding are weak or reduced against the parent protein; the word gives no strength.
T1: Myocardin related transcription factor A (MRTF-A) (human) (UniProt Q969V6)
T1 sequence: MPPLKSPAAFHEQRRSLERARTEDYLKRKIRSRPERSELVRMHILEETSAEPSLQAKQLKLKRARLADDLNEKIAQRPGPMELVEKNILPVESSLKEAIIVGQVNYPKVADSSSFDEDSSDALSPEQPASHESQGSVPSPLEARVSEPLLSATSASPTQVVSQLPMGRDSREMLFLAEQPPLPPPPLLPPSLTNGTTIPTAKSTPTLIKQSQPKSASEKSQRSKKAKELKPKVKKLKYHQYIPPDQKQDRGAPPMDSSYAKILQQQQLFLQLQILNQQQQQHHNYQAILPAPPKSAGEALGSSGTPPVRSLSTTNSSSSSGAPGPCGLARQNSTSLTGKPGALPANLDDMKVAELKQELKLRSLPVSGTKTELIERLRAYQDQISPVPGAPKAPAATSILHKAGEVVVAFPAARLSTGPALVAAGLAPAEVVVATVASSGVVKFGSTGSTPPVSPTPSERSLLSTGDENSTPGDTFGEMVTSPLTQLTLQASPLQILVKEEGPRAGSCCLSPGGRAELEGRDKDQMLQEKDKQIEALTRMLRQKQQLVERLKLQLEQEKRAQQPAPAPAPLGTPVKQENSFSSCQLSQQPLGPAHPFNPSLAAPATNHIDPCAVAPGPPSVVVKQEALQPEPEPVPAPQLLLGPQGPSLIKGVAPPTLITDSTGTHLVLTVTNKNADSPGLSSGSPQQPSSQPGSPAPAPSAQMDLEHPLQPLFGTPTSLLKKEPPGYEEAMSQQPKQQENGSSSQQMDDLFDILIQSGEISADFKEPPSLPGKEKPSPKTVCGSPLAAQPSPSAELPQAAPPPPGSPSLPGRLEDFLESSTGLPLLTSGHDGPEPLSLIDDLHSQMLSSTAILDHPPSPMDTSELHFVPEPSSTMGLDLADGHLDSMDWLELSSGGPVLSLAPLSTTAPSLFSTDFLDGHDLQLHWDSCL

The chains behind the UniProt entries cited, without tags or fusion partners.
UniProt Q04206: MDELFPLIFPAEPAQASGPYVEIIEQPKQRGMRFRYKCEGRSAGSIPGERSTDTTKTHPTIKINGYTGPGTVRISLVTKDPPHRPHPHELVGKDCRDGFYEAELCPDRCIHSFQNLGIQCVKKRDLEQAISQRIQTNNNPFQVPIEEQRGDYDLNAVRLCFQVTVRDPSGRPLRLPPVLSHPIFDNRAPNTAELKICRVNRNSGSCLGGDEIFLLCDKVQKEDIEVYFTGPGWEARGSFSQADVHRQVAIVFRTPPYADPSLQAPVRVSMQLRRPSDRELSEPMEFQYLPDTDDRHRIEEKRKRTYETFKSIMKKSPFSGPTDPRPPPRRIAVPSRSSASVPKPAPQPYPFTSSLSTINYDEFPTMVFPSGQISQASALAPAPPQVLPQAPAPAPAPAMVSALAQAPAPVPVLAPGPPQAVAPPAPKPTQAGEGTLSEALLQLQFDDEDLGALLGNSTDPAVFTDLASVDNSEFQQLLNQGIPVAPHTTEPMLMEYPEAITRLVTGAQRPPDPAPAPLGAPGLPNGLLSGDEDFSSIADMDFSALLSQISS


Target: T1, Myocardin related transcription factor A (MRTF-A) (human)
Experiment: co-IP; MRTF-A antibody (Bethyl A302-202A) immobilised on AminoLink Plus Coupling Resin (Pierce co-IP kit); 1 mg pre-cleared lysate of hCASMCs overexpressing MRTF-A, overnight at 4°C; Control Resin column as negative control; eluates read by dot blot (RelA, RelB, MRTF-A) and western blot (RelA)

binding	Molecule
binds	RelA (from UniProt Q04206 1-551)
binds	RelB (protein, UniProt Q01201 1-579) MLRSGPASGPSVPTGRAMPSRRVARPPAAPELGALGSPDLSSLSLAVSRSTDELEIIDEYIKENGFGLDGGQPGPGEGLPRLVSRGAASLSTVTLGPVAPPATPPPWGCPLGRLVSPAPGPGPQPHLVITEQPKQRGMRFRYECEGRSAGSILGESSTEASKTLPAIELRDCGGLREVEVTACLVWKDWPHRVHPHSLVGKDCTDGICRVRLRPHVSPRHSFNNLGIQCVRKKEIEAAIERKIQLGIDPYNAGSLKNHQEVDMNVVRICFQASYRDQQGQMRRMDPVLSEPVYDKKSTNTSELRICRINKESGPCTGGEELYLLCDKVQKEDISVVFSRASWEGRADFSQADVHRQIAIVFKTPPYEDLEIVEPVTVNVFLQRLTDGVCSEPLPFTYLPRDHDSYGVDKKRKRGMPDVLGELNSSDPHGIESKRRKKKPAILDHFLPNHGSGPFLPPSALLPDPDFFSGTVSLPGLEPPGGPDLLDDGFAYDPTAPTLFTMLDLLPPAPPHASAVVCSGGAGAVVGETPGPEPLTLDSYQAPGPGDGGTASLVGSNMFPNHYREAAFGGGLLSPGPEAT

— paper PMC8521029
